Test results taken from patent US20070292396A1, “COMBINATION THERAPY WITH ONCOLYTIC ADENOVIRUS” (priority 2006, published 2007).
At least one structure is not confirmed: it was looked up by name or label, or the drawing left a doubt.

Test system: U-87 MG cell line
Test: In vitro combination of ICOVIR-5 with TMZ or RAD001
Assay type: cell-based, human

## Cn1nnc2c(C(N)=O)ncn2c1=O [TMZ, temozolomide]
  effect of drug on adenoviral replication in vitro (fiber expression, western blot and RT-QT-PCR): neither RAD001 nor TMZ suppressed adenoviral replication in vitro
